# Test results from PubChem BioAssay AID504444 (National Center for Advancing Translational Sciences (NCATS), 2011).
# The whole screen tested about 360,000 compounds, of which about 7,500 (2.1%) were called active. Inconclusive means that the source gave no clear call. Such entries were picked first, then a sample of the others. The call rests on the fitted dose curve; in most records, active means well fitted inhibition curve with a large enough effect; inconclusive means small, poorly fitted or top-dose-only effect, or effect the other way; inactive means flat fitted curve, though single readings scatter. Potencies of inconclusive entries are doubtful fits and often do not repeat.
# Test: Nrf2 qHTS screen for inhibitors; further: nearly all actives have a fitted effect of over 60% in size
# Conditions: A549 ARE-Fluc reporter, luciferase luminescence, 18-24 h; activity change, negative = inhibition: at 46 µM (top of the series)
# Procedure, shortened: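 Cells were seeded and rested 2 h, then exposed to compounds for 18-24 h. CellTiter-Fluor was read first as a viability measure. BugLite was added 15 min before the final luminescent read of ARE-luciferase activity in A549 cells.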
# On the % scale 0 is the no-effect control and ±100 the full control effect; potency means the concentration at half of the fitted maximal effect.
SMILES,Potency,"activity change, negative = inhibition"
CCCOP(=O)(c1ccc(N(C)C)cc1)C(O)c1ccc(Cl)cc1Cl (stereo not drawn),"inconclusive: 18.4 µM [falling, partial curve, poor fit]",–
COc1ccccc1N1C(=O)NC(=O)/C(=C\c2cnn(-c3ccccc3)c2)C1=O,"inconclusive: 29.1 µM [activator, single point]",–
Cn1nccc1C(=O)N1CCC2(CC1)OCCO2,–,inactive: -2.51%
CN1C(=O)/C(=C\c2ccc(N3CCCCC3)o2)C(=O)NC1=S,"inconclusive: 29.1 µM [activator, single point]",–
CCOc1ccc(N=Cc2c(O)n(C(C)(C)C)c(=O)[nH]c2=O)cc1,"inconclusive: 23.1 µM [falling, partial curve, poor fit]",–
CCOP(=S)(OCC)c1ccc(N(C)C)cc1,"inconclusive: 6.51 µM [falling, partial curve, poor fit]",–
CC(=O)Nc1ccc(S(=O)(=O)N2CCSC2c2ccc(C)cc2)cc1 (stereo not drawn),"inconclusive: 29.1 µM [falling, single point]",–
Cc1cccc(N2C(=O)CSC23C(=O)N(CC(=O)Nc2cccc(Cl)c2)c2ccccc23)c1 (stereo not drawn),"inconclusive: 20.6 µM [falling, partial curve, poor fit]",–
CCN(CC)S(=O)(=O)c1ccc(C)c(NCC(=O)Nc2ccc(C#N)c(Cl)c2)c1,"inconclusive: 20.6 µM [falling, single point]",–
NC(=O)c1ncn([C@@H]2O[C@H](CO)[C@@H](O)[C@H]2O)n1,"inconclusive: 10.3 µM [activator, partial curve, poor fit]",–
COc1ccc(-c2nn(CCC#N)cc2C(=O)Nc2ccc(C(C)=O)cc2)cc1,–,inactive: -8.88%
Cc1c(C(=O)N2CCOCC2)sc2nc(-c3ccccc3)cn12,"inconclusive: 6.51 µM [activator, partial curve]",–
COC(=O)C1=C(c2ccc3ccccc3c2)C[C@@H]2CC[C@H]1N2C(=O)N1CCC(C)CC1,"inconclusive: 18.4 µM [falling, single point]",–
CC(C)C(=O)Nc1ccc(C(=O)NCc2cccnc2)cc1,"inconclusive: 1.84 µM [falling, full curve, poor fit]",–
COc1cccc(NP(=O)(Oc2ccccc2Cl)Oc2ccccc2Cl)c1,"inconclusive: 29.1 µM [falling, single point]",–
Nc1c(C(=O)Nc2ccc(Cl)c(C(F)(F)F)c2)sc2nc3c(cc12)N1CCC3CC1,active: 6.51 µM,–
CCN(CC)CCN1Cc2ccccc2C1=N,–,inactive: 23.2%
O=C(N/N=C/c1c(O)n(CCc2ccccc2)c(=O)[nH]c1=O)c1ccccc1O,–,inactive: 22.8%
CC(=O)c1c(O)n(C2CCCCCC2)c(=O)[nH]c1=O,–,inactive: -21.3%
COC1=CC(=O)OC(CCc2ccc3c(c2)OCO3)C1 (stereo not drawn),"inconclusive: 7.31 µM [activator, partial curve, poor fit]",–
Cc1nc2cc(C(F)(F)F)ccc2n1C1CCN(Cc2nnnn2Cc2cccs2)CC1,"inconclusive: 23.1 µM [falling, single point]",–
Cc1ccc(-c2cc(-c3ccccc3)cc(-c3ccccc3)[n+]2-c2ccccc2)cc1,active: 18.4 µM,–

SMILES,Potency,"activity change, negative = inhibition"
CCCCCn1c(=O)c(C(=O)Nc2ccccn2)c(O)c2ccccc21,"inconclusive: 29.1 µM [falling, partial curve, poor fit]",–
C=Cn1ccnc1P(=S)(c1cc(N(CC)CC)ns1)c1nccn1C=C,"inconclusive: 16.4 µM [falling, single point]",–
CC(C)(C)C(=O)c1cn(CC(=O)NCc2ccco2)c2ccccc12,"inconclusive: 2.91 µM [activator, full curve]",–
CC(C)COC(=O)OCN1C(=O)CN(CCN2CC(=O)N(COC(=O)OCC(C)C)C(=O)C2)CC1=O,"inconclusive: 3.66 µM [falling, partial curve, poor fit]",–
C[N+](C)(C)CC1CCCc2ccccc2C1=O (stereo not drawn),–,inactive: 9.64%
NC(=S)c1cn(C2OC(CO)C(O)C2O)c2ncnc(N)c12 (stereo not drawn),"inconclusive: 6.51 µM [falling, partial curve, poor fit]",–
C[C@H]1COC2=C1C(=O)C(=O)c1c2ccc2c1CCCC2(C)C,"inconclusive: 29.1 µM [falling, single point]",–
COc1ccc(CC2NCC(O)C2OC(C)=O)cc1 (stereo not drawn),active: 0.461 µM,–
COc1ccc(C=C2C(=O)NC(=S)NC2=O)cc1OC,–,inactive: -22.6%
COc1ccc(-n2c(-c3ccco3)nc3c(cnn3-c3ccc(Cl)cc3)c2=O)cc1,active: 25.9 µM,–
COC(=O)C1=C(c2ccc(F)cc2OCc2ccccc2)C[C@@H]2CC[C@H]1N2C(=O)NCc1ccc(OC)cc1,"inconclusive: 20.6 µM [falling, single point]",–
COC(=O)C1=C(c2ccc(F)cc2OCc2ccccc2)C[C@@H]2CC[C@H]1N2C(=O)NCCc1ccc(F)cc1,active: 18.4 µM,–
Cn1c(=O)oc2cc(S(=O)(=O)N3CCc4ccccc43)ccc21,"inconclusive: 14.6 µM [falling, partial curve, poor fit]",–
NNc1n[nH]c(=S)n1N,"inconclusive: 0.082 µM [falling, full curve]",–
Cc1ccccc1-n1nc(C)c2c1NC(=O)CSC2c1ccc(N(C)C)cc1 (stereo not drawn),"inconclusive: 0.291 µM [activator, full curve, poor fit]",–
C=CCn1c(O)c(C(C)=NCc2cccnc2)c(=O)[nH]c1=O,–,inactive: -26.2%
C[C@H](CO)N1C[C@H](C)[C@@H](CN(C)S(=O)(=O)c2cccs2)Oc2ccc(NC(=O)Nc3ccc(C(F)(F)F)cc3)cc2C1=O,"inconclusive: 29.1 µM [falling, single point]",–
CN1C(=O)/C(=C/C=C/c2ccco2)C(=O)NC1=S,–,inactive: 0.473%
O=C(O)c1sccc1Oc1ccc(F)cc1[N+](=O)[O-],active: 23.1 µM,–
O=c1[nH]c(O)c(N=Nc2cccc(S(=O)(=O)N3CCOCC3)c2)c(=O)[nH]1,"inconclusive: 7.31 µM [falling, partial curve, poor fit]",–
CCC(=Nc1ccccc1N)c1c(O)[nH]c(=O)[nH]c1=O,"inconclusive: 14.6 µM [activator, partial curve]",–

# Structures shown so far that have a cyano group (2):
SMILES,Potency,"activity change, negative = inhibition"
CCN(CC)S(=O)(=O)c1ccc(C)c(NCC(=O)Nc2ccc(C#N)c(Cl)c2)c1,"inconclusive: 20.6 µM [falling, single point]",–
COc1ccc(-c2nn(CCC#N)cc2C(=O)Nc2ccc(C(C)=O)cc2)cc1,–,inactive: -8.88%
